The values below come from the supplement of paper PMC12819154, “High-throughput peptide-centric local stability assay extends protein–ligand identification to membrane proteins, tissues and bacteria” (Nature Structural & Molecular Biology, 2025).

By UniProt entry, the sequences of proteins in these tests, tags left out. Where a name states a change or a piece, a line headed by the entry shows the natural chain unless it says otherwise.
UniProt Q5SXA9: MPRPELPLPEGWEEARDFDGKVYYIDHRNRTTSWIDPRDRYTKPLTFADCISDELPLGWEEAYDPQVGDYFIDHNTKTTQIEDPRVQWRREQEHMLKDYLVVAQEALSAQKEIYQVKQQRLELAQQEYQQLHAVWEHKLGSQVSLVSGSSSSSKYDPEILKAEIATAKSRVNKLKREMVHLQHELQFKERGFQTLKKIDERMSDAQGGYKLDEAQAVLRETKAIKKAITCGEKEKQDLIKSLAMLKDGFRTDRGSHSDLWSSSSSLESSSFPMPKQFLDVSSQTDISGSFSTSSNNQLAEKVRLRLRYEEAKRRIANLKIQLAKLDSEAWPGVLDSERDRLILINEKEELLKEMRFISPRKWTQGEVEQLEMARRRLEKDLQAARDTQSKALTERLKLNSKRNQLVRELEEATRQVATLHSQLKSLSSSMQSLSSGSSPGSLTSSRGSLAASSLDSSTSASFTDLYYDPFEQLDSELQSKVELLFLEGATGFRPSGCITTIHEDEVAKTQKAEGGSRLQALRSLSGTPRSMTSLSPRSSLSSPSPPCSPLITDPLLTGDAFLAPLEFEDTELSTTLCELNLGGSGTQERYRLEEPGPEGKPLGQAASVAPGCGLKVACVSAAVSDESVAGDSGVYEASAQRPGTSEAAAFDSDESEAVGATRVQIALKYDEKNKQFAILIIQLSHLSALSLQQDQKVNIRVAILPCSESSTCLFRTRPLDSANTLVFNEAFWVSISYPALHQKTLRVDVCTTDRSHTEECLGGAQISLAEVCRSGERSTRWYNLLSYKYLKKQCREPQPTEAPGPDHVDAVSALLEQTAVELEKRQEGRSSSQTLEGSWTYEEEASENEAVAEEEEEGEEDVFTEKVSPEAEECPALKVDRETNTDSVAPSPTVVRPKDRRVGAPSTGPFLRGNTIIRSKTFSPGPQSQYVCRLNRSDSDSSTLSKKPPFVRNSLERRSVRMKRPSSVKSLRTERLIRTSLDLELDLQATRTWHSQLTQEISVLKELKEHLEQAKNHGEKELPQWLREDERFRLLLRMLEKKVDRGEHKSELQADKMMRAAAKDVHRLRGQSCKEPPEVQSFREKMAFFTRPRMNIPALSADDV
UniProt Q63886: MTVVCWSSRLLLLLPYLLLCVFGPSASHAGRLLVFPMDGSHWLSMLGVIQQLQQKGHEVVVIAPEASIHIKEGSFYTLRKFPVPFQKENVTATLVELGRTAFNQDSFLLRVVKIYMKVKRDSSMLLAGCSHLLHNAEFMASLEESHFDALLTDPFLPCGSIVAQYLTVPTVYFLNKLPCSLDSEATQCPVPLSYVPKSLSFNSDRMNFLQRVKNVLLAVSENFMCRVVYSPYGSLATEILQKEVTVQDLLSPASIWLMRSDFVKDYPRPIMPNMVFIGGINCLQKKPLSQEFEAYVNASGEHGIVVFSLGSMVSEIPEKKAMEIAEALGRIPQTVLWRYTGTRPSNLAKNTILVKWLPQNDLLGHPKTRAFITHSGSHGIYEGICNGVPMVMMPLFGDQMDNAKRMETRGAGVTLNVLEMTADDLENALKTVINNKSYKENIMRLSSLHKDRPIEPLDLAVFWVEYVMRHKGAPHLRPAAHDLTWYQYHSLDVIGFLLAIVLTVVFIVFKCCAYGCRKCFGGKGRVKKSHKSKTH
UniProt Q60931: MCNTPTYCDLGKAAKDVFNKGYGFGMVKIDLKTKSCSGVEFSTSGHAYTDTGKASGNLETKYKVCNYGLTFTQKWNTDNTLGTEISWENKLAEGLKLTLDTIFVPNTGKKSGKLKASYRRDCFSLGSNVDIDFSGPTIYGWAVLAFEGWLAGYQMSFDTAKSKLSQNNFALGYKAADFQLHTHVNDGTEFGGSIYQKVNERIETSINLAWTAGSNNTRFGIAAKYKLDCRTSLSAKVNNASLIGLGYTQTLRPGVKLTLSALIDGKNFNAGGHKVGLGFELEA
UniProt Q60575: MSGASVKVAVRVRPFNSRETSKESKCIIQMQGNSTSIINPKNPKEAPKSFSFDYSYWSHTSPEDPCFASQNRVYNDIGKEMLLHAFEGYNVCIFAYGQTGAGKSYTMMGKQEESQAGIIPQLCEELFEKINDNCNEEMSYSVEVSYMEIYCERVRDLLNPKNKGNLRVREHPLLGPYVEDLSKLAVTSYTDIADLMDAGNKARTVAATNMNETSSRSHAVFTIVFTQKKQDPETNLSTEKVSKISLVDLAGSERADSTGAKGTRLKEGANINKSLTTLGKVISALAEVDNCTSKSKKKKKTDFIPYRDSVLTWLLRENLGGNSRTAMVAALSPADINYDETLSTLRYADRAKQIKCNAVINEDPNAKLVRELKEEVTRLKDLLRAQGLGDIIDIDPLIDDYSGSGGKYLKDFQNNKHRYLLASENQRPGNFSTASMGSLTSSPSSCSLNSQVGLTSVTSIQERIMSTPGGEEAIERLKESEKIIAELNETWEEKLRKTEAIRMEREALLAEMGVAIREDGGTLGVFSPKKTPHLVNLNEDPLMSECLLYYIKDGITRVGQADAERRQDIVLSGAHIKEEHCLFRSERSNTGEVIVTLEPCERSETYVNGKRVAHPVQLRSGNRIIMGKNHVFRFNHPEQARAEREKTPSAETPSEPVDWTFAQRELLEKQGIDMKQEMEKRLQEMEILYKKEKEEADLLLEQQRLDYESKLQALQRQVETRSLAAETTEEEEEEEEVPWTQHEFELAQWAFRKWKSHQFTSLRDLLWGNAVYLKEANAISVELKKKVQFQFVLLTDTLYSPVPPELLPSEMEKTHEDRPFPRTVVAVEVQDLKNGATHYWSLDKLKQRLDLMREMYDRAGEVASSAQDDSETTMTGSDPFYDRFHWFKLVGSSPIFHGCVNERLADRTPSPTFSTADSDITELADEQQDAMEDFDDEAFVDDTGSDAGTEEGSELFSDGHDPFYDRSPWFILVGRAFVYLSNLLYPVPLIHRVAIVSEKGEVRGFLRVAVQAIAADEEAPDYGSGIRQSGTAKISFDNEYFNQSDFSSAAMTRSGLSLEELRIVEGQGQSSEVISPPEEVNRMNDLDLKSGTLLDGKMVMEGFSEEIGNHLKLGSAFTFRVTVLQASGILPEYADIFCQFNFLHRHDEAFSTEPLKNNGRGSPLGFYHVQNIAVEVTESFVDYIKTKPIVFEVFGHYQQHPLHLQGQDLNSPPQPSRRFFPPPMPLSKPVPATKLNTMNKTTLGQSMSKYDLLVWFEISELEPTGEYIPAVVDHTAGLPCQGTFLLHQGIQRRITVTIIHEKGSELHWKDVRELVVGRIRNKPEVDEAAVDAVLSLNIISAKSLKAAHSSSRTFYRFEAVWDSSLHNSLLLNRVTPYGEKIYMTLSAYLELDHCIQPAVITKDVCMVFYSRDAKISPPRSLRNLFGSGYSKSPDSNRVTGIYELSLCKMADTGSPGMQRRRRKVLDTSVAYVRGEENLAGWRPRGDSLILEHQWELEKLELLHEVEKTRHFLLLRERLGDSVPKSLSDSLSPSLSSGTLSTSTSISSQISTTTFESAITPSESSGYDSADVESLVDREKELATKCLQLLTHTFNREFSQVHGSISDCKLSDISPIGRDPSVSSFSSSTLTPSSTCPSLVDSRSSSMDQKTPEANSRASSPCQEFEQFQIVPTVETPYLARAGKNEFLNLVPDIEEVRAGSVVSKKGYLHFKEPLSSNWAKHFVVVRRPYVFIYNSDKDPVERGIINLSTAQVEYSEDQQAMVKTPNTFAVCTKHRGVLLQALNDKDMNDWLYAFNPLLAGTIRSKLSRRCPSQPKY
UniProt Q61249: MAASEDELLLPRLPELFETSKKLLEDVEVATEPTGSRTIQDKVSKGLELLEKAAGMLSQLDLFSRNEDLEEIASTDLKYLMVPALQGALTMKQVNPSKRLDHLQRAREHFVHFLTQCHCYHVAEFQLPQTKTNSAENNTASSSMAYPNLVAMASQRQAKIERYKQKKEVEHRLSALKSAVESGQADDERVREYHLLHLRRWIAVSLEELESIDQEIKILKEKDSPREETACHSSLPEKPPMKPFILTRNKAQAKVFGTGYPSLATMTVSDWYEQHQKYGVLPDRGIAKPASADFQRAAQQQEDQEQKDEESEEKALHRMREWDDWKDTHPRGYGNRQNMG
UniProt Q64FW2: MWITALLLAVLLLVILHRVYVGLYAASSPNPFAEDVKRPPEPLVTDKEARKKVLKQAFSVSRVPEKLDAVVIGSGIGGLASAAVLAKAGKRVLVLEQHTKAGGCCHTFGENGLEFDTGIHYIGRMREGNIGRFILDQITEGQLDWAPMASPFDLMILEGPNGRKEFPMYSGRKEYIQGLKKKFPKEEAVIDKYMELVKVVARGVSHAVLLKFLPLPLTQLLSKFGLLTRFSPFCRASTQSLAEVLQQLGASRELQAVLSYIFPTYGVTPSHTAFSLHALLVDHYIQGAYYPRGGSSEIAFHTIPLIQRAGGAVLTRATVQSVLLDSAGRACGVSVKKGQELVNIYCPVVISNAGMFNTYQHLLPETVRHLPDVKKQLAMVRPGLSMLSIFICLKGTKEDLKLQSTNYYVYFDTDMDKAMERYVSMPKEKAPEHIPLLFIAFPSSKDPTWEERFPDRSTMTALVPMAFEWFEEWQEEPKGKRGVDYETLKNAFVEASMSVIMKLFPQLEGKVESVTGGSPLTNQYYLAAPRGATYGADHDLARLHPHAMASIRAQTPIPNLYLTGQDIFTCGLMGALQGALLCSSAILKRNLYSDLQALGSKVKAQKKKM
UniProt Q6A4J8: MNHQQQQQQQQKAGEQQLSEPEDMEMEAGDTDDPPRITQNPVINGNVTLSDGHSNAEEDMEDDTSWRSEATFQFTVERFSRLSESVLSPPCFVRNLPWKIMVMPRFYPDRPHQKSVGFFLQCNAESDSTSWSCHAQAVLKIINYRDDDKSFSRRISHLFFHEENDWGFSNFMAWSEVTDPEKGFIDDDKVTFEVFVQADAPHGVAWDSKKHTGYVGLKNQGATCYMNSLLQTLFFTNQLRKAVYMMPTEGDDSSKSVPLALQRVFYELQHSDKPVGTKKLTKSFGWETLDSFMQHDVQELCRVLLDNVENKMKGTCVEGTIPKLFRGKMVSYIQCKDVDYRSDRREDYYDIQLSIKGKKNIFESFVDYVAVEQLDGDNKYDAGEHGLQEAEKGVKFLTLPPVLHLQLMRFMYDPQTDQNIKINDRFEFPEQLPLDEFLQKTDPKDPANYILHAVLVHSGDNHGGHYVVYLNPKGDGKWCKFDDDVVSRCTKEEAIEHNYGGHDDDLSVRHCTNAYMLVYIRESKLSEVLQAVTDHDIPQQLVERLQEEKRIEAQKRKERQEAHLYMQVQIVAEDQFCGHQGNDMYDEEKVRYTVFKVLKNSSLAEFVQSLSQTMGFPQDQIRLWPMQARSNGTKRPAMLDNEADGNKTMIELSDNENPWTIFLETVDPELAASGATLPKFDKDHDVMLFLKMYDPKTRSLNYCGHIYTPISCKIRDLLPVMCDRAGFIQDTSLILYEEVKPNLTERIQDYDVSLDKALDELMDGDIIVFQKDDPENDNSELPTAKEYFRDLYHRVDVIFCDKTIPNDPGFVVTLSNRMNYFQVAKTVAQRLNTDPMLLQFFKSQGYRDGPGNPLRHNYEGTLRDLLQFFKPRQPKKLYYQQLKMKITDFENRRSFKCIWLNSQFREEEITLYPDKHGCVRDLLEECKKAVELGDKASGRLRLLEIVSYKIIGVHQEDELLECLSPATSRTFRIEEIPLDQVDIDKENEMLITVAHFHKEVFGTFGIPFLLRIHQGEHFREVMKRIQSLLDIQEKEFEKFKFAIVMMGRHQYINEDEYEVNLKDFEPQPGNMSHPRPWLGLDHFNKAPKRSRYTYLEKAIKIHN
UniProt Q60967: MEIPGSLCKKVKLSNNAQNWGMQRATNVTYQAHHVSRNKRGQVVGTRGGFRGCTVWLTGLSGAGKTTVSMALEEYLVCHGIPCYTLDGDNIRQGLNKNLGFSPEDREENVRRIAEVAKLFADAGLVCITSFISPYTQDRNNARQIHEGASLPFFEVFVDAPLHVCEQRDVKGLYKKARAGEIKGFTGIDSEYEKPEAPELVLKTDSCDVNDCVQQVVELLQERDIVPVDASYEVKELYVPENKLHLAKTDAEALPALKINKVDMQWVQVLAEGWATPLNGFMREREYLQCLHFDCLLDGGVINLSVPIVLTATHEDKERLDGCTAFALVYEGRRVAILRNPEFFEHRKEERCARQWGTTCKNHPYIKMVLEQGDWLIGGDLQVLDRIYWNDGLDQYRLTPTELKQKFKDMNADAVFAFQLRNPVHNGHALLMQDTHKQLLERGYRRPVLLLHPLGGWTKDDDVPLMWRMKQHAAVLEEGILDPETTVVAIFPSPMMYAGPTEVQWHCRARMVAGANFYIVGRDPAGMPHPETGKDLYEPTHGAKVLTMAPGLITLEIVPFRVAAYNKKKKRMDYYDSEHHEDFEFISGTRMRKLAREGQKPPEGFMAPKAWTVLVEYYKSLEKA
UniProt Q61268: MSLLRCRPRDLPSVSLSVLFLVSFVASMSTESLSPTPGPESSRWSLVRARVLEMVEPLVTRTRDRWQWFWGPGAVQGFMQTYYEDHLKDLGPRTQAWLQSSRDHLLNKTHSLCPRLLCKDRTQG

This is one part of the list. Small differences around the control level are noise.

Compound in the assay: CN[C@@H]1C[C@H]2O[C@@](C)([C@@H]1OC)n1c3ccccc3c3c4c(c5c6ccccc6n2c5c31)C(=O)NC4 [staurosporine]
Nature of the assay: log2 fold change of pooled soluble protein (PISA), ligand vs vehicle (log2 ratio); higher = more thermally stabilized. The conditions noted are these: ligand concentration: 20 uM; assay format: PISA pool 52.9/55.5/58.6 C.
As to UniProt Q5SXA9, the “log2 fold change of pooled soluble protein” value (“log2 fold change” for short) is -0.0795. The result for UniProt Q6NT99 reads -0.125; that for UniProt Q5XJY5, -0.159. UniProt Q61074: the “log2 fold change” value was determined as 0.0161. With UniProt Q63886, the “log2 fold change” value amounted to 0.102.

Regarding UniProt Q5SWU9, the “log2 fold change” value is -0.0684. With UniProt Q5SRX1, the “log2 fold change” value was found to be 0.366. The result for UniProt Q6AW69 reads 0.059.

UniProt Q60932: the “log2 fold change” value is -0.167. With UniProt Q60931, the “log2 fold change” value is -0.0674. Take UniProt Q61559: the “log2 fold change” value was -0.39. Take UniProt Q60596: the “log2 fold change” value worked out at 0.265. With UniProt Q61553, the “log2 fold change” value is -0.0263. Turning to UniProt Q69ZW3, the “log2 fold change” value was found to be 0.045.

UniProt Q64345: the “log2 fold change” value was found to be 0.141. On to UniProt Q64435, for which the “log2 fold change” value is -0.00674. Regarding UniProt Q64378, the “log2 fold change” value is -0.0893.

Regarding UniProt Q6A0A9, the “log2 fold change” value turned out to be 0.0418.

With UniProt Q60575, the “log2 fold change” value is -0.246. Turning to UniProt Q5YD48, the “log2 fold change” value was -0.00839. The result for UniProt Q64324 reads -0.00718; that for UniProt Q60770, -0.232. As to UniProt Q61249, the “log2 fold change” value came out at 0.0466. On to UniProt Q64FW2, for which the “log2 fold change” value is 0.0266. On to UniProt Q61090, for which the “log2 fold change” value was -0.146. The result for UniProt Q6A4J8 reads -0.0683; that for UniProt Q5SV85, -0.0419.

As for UniProt Q62465, the “log2 fold change” value is -0.0131. For the target UniProt Q61029, the “log2 fold change” value is -0.0841. Consider UniProt Q6IFZ9, for which the “log2 fold change” value was -0.255. For the target UniProt Q62419, the “log2 fold change” value was -0.202.

UniProt Q60967: the “log2 fold change” value was -0.15. The result for UniProt Q61268 reads 0.109.

Turning to UniProt Q64521, the “log2 fold change” value was found to be 0.0118. Take UniProt Q64669: the “log2 fold change” value came out at 0.0112. UniProt Q64010: the “log2 fold change” value was -0.00697. On to UniProt Q64176, for which the “log2 fold change” value amounted to 0.0322.
